# Results as given in PubChem BioAssay AID1671190 (National Center for Advancing Translational Sciences (NCATS), 2021).
# Protein sequences, listed by entry. Tags and fused reporters are not part of them. Lines headed by an entry give the natural chain unless they say otherwise; changes in a name come on top.
# UniProt P18054: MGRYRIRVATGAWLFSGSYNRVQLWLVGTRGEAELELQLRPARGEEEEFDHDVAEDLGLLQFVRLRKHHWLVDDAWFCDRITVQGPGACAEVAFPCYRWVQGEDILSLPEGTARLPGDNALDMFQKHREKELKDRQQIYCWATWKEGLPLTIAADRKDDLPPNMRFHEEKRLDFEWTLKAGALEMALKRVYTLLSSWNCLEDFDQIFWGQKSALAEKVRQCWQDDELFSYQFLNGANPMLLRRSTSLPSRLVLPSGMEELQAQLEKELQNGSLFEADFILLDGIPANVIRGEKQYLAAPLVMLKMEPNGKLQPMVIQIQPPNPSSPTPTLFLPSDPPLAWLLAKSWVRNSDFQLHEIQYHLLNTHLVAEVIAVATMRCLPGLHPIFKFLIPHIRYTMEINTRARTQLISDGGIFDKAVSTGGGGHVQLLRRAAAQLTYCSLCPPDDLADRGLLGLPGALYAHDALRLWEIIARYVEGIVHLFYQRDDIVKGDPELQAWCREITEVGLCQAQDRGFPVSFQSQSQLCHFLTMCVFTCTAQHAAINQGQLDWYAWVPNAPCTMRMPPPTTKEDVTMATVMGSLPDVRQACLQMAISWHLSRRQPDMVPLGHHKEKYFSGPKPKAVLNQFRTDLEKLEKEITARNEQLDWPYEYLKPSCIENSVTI
# Out of some 580,000 compounds screened, about 6,100 (1.1%) were called active. Inconclusive results, whose numbers are uncertain, are shown with a selection of clear calls. The call rests on the fitted dose curve; in most records, active means well fitted inhibition curve with a large enough effect; inconclusive means small, poorly fitted or top-dose-only effect, or another doubt; inactive means no such curve, though single readings can be large or run the other way. A potency beside an inconclusive call is a rough fit, not a confirmed value.
# Molecular target: Polyunsaturated fatty acid lipoxygenase ALOX12 (Homo sapiens) (UniProt P18054)
# Assay: Primary qHTS assay for inhibitors of human arachidonate 12S-lipoxygenase (ALOX12): Round 2
# Conditions: purified 12hLO, xylenol orange hydroperoxide absorbance; activity change, negative = inhibition: at 108 µM (top of the series) unless noted
# In short: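 Purified human 12hLO (150 nM final) in 25 mM Hepes, 0.01% Triton X-100, pH 7.0 was preincubated 15 min at room temperature with compound. Then 40 uM arachidonic acid was added, 30 min. Hydroperoxide was read by Fe-XO absorbance ratio 573/405 nm.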
# On the % scale 0 is the no-effect control and ±100 the full control effect; potency means the concentration at half of the fitted maximal effect.
SMILES,Potency,"activity change, negative = inhibition"
COc1cc(C(=O)Nc2nc3c(s2)Cc2c(Br)ccc(OC)c2-3)cc(OC)c1OC,"inconclusive: 12.6 µM [inhibitor, full curve]",–
Cn1cc(/C=C(\NC(=O)c2ccccc2)C(=O)N2CCOCC2)c2ccccc21,"inconclusive: 12.6 µM [inhibitor, partial curve, poor fit]",–
FC(F)(F)c1ccccc1C(c1ccccc1)N1CCNCC1 (stereo not given),"inconclusive: 0.631 µM [inhibitor, full curve, poor fit]",–
O=C(Cc1coc2cc(O)ccc12)NNC(=O)c1ccc(Br)s1,"inconclusive: 89.1 µM [inhibitor, partial curve, poor fit]",–
COc1ccc(Cl)cc1NC(=O)CSc1c2c(nc3ccccc13)CCC2,–,inactive: 1.07%
Cc1cccc(C)c1OCC(=O)NCc1ccc(Cn2cccn2)cc1,–,inactive: 50.5%
COc1cc(NC(=O)c2cc(OC)c(OC)c(OC)c2)c(OC)cc1NC(=O)CN1CCCCC1,–,inactive: 53.1%
Cc1cc2c(cc1C)CSC(c1cc(Cl)ccc1O)SC2,active: 12.6 µM,–
CC(C)c1ccc(/C=C/c2[nH]c(=O)[nH]c(=O)c2[N+](=O)[O-])cc1,"inconclusive: 89.1 µM [inhibitor, partial curve, poor fit]",–
O=C(CSc1ccc2c(c1)OCCCO2)c1ccc[nH]1,"inconclusive: 39.8 µM [inhibitor, partial curve, poor fit]",–
COc1ccc(-n2c(C)nc3c(cnn3-c3ccc(C)c(C)c3)c2=O)cc1,"inconclusive: 100 µM [inhibitor, single point]",–
COC[C@H]1CCCN1C(=O)C[C@@H]1O[C@H](CNS(=O)(=O)c2ccccc2)[C@@H](O)[C@H]1O,active: 39.8 µM,–
CCCCC(c1nnnn1C1CCCC1)N1CCN(C(=O)c2ccco2)CC1 (stereo not given),"inconclusive: 35.5 µM [inhibitor, partial curve, poor fit]",–
Cc1cc(C)cc(-n2nnnc2SCCCn2c(=O)c3c(ncn3C)n(C)c2=O)c1,–,inactive: 18.9%
CCOc1ccccc1NC(=O)C1CCCN1S(=O)(=O)c1ccccc1C(F)(F)F (stereo not given),–,inactive: 7.23%
Cn1ccc2c(N3CCCC3)cc3c(c21)C1CCC3O1 (stereo not given),–,inactive: -75.2%
CCN(Cc1ccccc1)C(=O)c1nn(-c2ccccc2)c(=O)c2ccccc12,–,inactive: 3.53%
C=CCC(=O)N1CCC(n2nccc2NC(=O)c2ccc3c(c2)OCO3)CC1,"inconclusive: 126 µM [inhibitor, single point]",–
O=C(OCC1CCCO1)c1ccc2c(c1)N(Cc1cccc(Cl)c1)C(=O)c1ccccc1S2(=O)=O (stereo not given),–,inactive: -13.5%
O=C(NCc1ccco1)c1ccc(CS(=O)c2ccccc2Cl)o1 (stereo not given),–,inactive: 11.4%
O=C(c1oc2ccccc2c1CSCc1ccccc1)N1CCN(c2ncccn2)CC1,"inconclusive: 112 µM [inhibitor, single point]",–
CCCNC(=O)C1N(c2ccc(OC)cc2)C(=O)C12CCCCC2 (stereo not given),–,inactive: 47.3%
S=C(Nc1cccnc1)Nc1cccc2cnccc12,–,inactive: 0%

# For reference, 8 of the compounds above:
SMILES,Potency,"activity change, negative = inhibition"
COc1cc(C(=O)Nc2nc3c(s2)Cc2c(Br)ccc(OC)c2-3)cc(OC)c1OC,"inconclusive: 12.6 µM [inhibitor, full curve]",–
Cn1cc(/C=C(\NC(=O)c2ccccc2)C(=O)N2CCOCC2)c2ccccc21,"inconclusive: 12.6 µM [inhibitor, partial curve, poor fit]",–
FC(F)(F)c1ccccc1C(c1ccccc1)N1CCNCC1 (stereo not given),"inconclusive: 0.631 µM [inhibitor, full curve, poor fit]",–
O=C(Cc1coc2cc(O)ccc12)NNC(=O)c1ccc(Br)s1,"inconclusive: 89.1 µM [inhibitor, partial curve, poor fit]",–
COc1ccc(Cl)cc1NC(=O)CSc1c2c(nc3ccccc13)CCC2,–,inactive: 1.07%
Cc1cccc(C)c1OCC(=O)NCc1ccc(Cn2cccn2)cc1,–,inactive: 50.5%
COc1cc(NC(=O)c2cc(OC)c(OC)c(OC)c2)c(OC)cc1NC(=O)CN1CCCCC1,–,inactive: 53.1%
Cc1cc2c(cc1C)CSC(c1cc(Cl)ccc1O)SC2,active: 12.6 µM,–

# More records

SMILES,Potency,"activity change, negative = inhibition"
O=C(CSc1ccc(Cl)cc1)Nc1ccccc1-c1nc(-c2ccccn2)no1,"inconclusive: 4.47 µM [inhibitor, partial curve, poor fit]",–
CC(C)(C)c1[nH]c2ccc(Br)cc2c1C=O,"inconclusive: 14.1 µM [inhibitor, partial curve, poor fit]",–
Cc1cc(C)c(S(=O)(=O)N2CCCC2c2cc(C(C)C)no2)cc1C (stereo not given),"inconclusive: 56.2 µM [inhibitor, partial curve, poor fit]",–
N#C/C(=C\c1ccc(Cl)s1)C(=O)N1CCN(c2ccccc2)CC1,"inconclusive: 4.47 µM [inhibitor, full curve, poor fit]",–
Cc1nc(NC(=S)NC(=O)c2cccs2)ccc1Br,–,inactive: 6.88%
Cc1cccc(C)c1NC(=S)NC(C)(C)CO,–,inactive: 107%
Cc1cccc(NC(=O)c2c(NC(=O)c3ccccc3)sc3c2CCCC3)c1,"inconclusive: 44.7 µM [inhibitor, partial curve, poor fit]",–
CN(c1ccccc1)c1ccc2nnc(-c3cc(C(=O)NCC4CCCO4)ccn3)n2n1 (stereo not given),"inconclusive: 20 µM [inhibitor, full curve, poor fit]",–
CCS(=O)(=O)Nc1cccc(C2=NN(S(=O)(=O)c3ccc(C)cc3)C(c3ccco3)C2)c1 (stereo not given),"inconclusive: 39.8 µM [inhibitor, partial curve, poor fit]",–
Cc1ccccc1-c1nc(NC(C)C)nc2cc(-c3ccccc3)sc12,"inconclusive: 44.7 µM [inhibitor, partial curve, poor fit]",–
CCc1cccc(C)c1NC(=O)CCc1ncc(-c2ccccc2F)o1,–,inactive: 6.15%
Cc1cc(=S)[nH]c(=S)[nH]1,"inconclusive: 44.7 µM [inhibitor, partial curve, poor fit]",–
Cc1ccc(SCc2cc(=O)[nH]c(SCC(=O)Nc3cc(Cl)ccc3Cl)n2)cc1,"inconclusive: 50.1 µM [inhibitor, partial curve, poor fit]",–
O=C(C1CC(=O)N(C2CCCCC2)C1)N1CCN(c2ccccc2)CC1 (stereo not given),"inconclusive: 44.7 µM [inhibitor, partial curve]",–
N#CC1=C2SCN(c3ccc(F)cc3)CN2C(=O)CC1c1cccc(F)c1 (stereo not given),active: 6.31 µM,–
Cc1cc(C)cc(NC(=O)N2CCCC(Cn3c(C4CC4)nc4cccnc43)C2)c1 (stereo not given),–,inactive: 9.94%
O=C(NCCO)c1nc(C(=O)c2ccc(Cl)cc2)c2ccccc2n1,–,inactive: -11.4%
Cc1cc(C)n2nc(SCC(=O)c3ccc[nH]3)nc2n1,"inconclusive: 63.1 µM [inhibitor, partial curve, poor fit]",–
COC(=O)c1c(C)sc(-c2c(-c3ccc4c(c3)OCCO4)[nH]c3[nH]c(=O)[nH]c(=O)c23)c1O,active: 25.1 µM,–
O=C(NCCCn1ccnc1)c1cn(-c2ccccc2)nc1-c1ccccc1,–,inactive: 8.25% [at 57.4 µM]
COC(=O)c1ccc([C@H]2C=C(C(=O)O)O[C@@H](OCc3ccc(CO)cc3)C2)cc1,"inconclusive: 28.2 µM [inhibitor, partial curve, poor fit]",–
COc1cc(/C=C(/C#N)C(=O)OC(C)C)cc(Br)c1O,"inconclusive: 0.708 µM [inhibitor, full curve, poor fit]",–
